The results in this text go back to paper PMC5751204.

Results are given in words; binding and its absence hold for the method and conditions named. In cells and extracts the contact can be indirect. Binding can be weak; no strength is given.

Assay [1] addresses T1, p120-catenin (human (endogenous in HEK293T)) (UniProt O60716).
T1 sequence: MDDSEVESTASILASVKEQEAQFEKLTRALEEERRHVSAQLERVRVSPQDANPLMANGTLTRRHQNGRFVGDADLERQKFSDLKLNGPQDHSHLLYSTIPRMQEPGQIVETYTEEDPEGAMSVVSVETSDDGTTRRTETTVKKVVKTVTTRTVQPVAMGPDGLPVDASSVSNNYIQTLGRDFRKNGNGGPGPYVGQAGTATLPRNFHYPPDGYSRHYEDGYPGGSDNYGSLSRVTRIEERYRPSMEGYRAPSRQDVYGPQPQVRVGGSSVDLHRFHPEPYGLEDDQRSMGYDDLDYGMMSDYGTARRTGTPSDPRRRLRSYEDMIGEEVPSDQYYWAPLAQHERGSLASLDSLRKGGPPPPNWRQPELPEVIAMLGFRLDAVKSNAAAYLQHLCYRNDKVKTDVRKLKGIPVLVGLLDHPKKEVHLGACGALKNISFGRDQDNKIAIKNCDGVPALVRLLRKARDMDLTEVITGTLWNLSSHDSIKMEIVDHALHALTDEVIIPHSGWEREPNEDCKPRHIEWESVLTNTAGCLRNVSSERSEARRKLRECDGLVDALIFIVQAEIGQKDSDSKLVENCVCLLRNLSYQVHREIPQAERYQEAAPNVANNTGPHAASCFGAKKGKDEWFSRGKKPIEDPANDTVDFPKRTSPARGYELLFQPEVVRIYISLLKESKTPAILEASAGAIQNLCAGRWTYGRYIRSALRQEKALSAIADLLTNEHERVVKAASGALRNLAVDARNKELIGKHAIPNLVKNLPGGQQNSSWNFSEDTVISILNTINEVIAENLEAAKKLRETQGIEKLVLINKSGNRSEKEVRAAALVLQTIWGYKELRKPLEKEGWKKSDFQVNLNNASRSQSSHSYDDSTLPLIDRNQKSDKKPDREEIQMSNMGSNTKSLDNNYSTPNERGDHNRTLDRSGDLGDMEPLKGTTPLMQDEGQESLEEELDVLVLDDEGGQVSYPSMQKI
Put plainly: co-IP; 293T cells treated with ctrl/CM or 90K/CM for 16 h; lysates immunoprecipitated with anti-p120-catenin antibody; blot for E-cadherin.

For assay [2], the target named is T1, p120-catenin (human (endogenous in HEK293T)). Put plainly: co-IP; in vitro: 293T cell lysates with or without added 90K, immunoprecipitated with anti-p120-catenin antibody; blot for E-cadherin.

Consider “E-cadherin (human (endogenous in HEK293T))”, for which the binding entry in assay [1] and in assay [2] was “binds” each time.
